Source: patent US20080103095A1
Results are given in words; binding and its absence hold for the method and conditions named. Binding seen in cells or lysates may run through a third protein. Some entries that bind do so weakly or less than the wild type.

The chains behind the UniProt entries cited, without tags or fusion partners. Residues count along the entry.
UniProt P14602: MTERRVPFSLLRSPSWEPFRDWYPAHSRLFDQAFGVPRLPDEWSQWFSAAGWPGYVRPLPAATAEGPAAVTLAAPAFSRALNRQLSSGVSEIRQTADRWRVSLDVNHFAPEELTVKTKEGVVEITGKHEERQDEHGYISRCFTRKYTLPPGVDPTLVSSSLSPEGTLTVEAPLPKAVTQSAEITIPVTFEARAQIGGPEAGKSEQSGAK
UniProt P63017, residues 2-646: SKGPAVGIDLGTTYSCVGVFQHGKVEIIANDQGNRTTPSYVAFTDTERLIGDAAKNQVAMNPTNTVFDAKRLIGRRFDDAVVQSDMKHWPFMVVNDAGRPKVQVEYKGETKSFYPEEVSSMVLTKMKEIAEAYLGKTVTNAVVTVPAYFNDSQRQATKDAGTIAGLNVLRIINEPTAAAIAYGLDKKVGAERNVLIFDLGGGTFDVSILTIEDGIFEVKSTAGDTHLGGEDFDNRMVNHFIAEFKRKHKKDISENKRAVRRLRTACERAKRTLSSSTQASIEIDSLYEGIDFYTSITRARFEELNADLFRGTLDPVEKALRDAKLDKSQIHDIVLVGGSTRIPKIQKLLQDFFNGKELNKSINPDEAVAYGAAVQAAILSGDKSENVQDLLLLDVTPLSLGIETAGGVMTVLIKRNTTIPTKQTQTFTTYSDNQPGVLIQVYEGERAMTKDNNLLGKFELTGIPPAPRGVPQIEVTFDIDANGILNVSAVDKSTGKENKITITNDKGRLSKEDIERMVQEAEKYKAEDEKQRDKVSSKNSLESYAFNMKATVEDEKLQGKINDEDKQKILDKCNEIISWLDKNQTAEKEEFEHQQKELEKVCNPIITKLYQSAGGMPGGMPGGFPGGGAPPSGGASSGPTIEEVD
UniProt Q61699, residues 2-858: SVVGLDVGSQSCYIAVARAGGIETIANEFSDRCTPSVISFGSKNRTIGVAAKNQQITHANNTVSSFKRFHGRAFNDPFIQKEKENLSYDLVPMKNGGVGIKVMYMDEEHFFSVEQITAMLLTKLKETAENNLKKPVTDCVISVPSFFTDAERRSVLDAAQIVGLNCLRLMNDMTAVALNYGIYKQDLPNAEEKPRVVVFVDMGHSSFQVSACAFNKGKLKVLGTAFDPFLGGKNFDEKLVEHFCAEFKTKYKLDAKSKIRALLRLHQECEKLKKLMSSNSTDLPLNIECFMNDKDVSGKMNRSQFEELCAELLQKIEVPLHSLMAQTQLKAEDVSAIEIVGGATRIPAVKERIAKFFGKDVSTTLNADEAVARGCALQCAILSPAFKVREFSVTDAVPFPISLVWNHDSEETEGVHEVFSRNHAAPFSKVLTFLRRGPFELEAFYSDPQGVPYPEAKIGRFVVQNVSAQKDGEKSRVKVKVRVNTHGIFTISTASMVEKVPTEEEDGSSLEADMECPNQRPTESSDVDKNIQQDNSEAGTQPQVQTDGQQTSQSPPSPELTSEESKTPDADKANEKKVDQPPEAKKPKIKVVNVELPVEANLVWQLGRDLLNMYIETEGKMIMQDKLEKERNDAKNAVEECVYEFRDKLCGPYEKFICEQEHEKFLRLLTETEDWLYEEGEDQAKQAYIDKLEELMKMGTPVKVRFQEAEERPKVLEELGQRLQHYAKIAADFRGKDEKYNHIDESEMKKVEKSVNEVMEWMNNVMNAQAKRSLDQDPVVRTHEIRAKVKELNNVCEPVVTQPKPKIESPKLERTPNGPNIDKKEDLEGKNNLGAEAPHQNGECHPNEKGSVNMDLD

Legend:
[1] = molecular target: native hsp25 in Colon26 cells (mouse (murine colon 26 tumor)) (UniProt P14602); assay: co-purification and co-immunoprecipitation, Colon26 cells
[2] = molecular target: native hsc70 in Colon26 cells (mouse (murine colon 26 tumor)) (UniProt P63017); assay: as above
[3] = molecular target: native hsp25 in Colon26 cells (mouse (murine colon 26 tumor)) (UniProt P14602); assay: reciprocal co-immunoprecipitation, Colon26 cell extracts and hsp110 fractions
[4] = molecular target: native hsc70 in Colon26 cells (mouse (murine colon 26 tumor)) (UniProt P63017); assay: as above
[5] = molecular target: native hsp25 in Colon26 cells (mouse (murine colon 26 tumor)) (UniProt P14602); assay: co-purification and co-immunoprecipitation, native complex
[6] = molecular target: native hsc70 in Colon26 cells (mouse (murine colon 26 tumor)) (UniProt P63017); assay: as above
[7] = molecular target: native hsp25 in Colon26 cells (mouse (murine colon 26 tumor)) (UniProt P14602); assay: co-purification (Con A, Mono Q, size exclusion) from Colon26 cells, immunoblot
[8] = molecular target: native hsc70 in Colon26 cells (mouse (murine colon 26 tumor)) (UniProt P63017); assay: as above

Measured: binding

native hsp110 from murine tumor cells (Colon26 / colon 26, Meth A) and liver (from UniProt Q61699 2-858)
binds: all assays above

native hsc70 in Colon26 cells (from UniProt P63017 2-646)
binds: [3]
